Target: CBP/p300 KIX domain (Mus musculus, UniProt P45481)
Assay: PrOF NMR chemical shift perturbation at fixed ligand concentration
Type: binding
Details: 3FY-labeled KIX; 833 µM to 5 mM small molecule

The chains behind the UniProt entries cited, without tags or fusion partners. Residues count along the entry.
UniProt P45481, 586-665: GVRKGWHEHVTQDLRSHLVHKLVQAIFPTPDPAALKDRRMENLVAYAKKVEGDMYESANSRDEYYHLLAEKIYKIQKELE

chemical shift perturbation (PrOF NMR), in words: under the statistical cutoff
Structure (SMILES): COc1ccc2cc([C@H](C)C(=O)O)ccc2c1 [naproxen]

— article PMC4423596 (Angewandte Chemie (International ed. in English), 2015)
